Results taken from US20070203144A1, “Use of Memantine and Brimonidine to Attenuate Vitreoretinal Vascular Endothelial Growth Factor (VEGF) Protein Levels in Animals” (Allergan, Inc., priority 2006, published 2007).

Assay: Blood glucose of STZ-treated diabetic BN rats
Format: in vivo, Brown Norway (BN) rats
Conditions: STZ-treated BN rats (>500 mg/dl), Mem 10 mg/kg/day or Bri 1 mg/kg/day for 4 wks

Row | Compound | effect on blood glucose | effect on blood glucose (listed as Mem) | effect on blood glucose (listed as Bri)
1 | CC12CC3CC(C)(C1)CC(N)(C3)C2 [Memantine, memantine] | did not affect | did not have any effect | 
2 | Brc1c(NC2=NCCN2)ccc2nccnc12 [Brimonidine, brimonidine] | did not affect |  | did not have any effect
